Reference: publication PMC3008709
These are yes or no findings as the source states them, for the method shown. In cells and extracts the contact can be indirect. Binding can be weak; no strength is given. Sequences can lack the tags named with a protein.

T1: full-length human IKKβ (Inhibitor of NFκB Kinase β subunit), non-epitope-tagged (human) (UniProt O14920)
T1 sequence: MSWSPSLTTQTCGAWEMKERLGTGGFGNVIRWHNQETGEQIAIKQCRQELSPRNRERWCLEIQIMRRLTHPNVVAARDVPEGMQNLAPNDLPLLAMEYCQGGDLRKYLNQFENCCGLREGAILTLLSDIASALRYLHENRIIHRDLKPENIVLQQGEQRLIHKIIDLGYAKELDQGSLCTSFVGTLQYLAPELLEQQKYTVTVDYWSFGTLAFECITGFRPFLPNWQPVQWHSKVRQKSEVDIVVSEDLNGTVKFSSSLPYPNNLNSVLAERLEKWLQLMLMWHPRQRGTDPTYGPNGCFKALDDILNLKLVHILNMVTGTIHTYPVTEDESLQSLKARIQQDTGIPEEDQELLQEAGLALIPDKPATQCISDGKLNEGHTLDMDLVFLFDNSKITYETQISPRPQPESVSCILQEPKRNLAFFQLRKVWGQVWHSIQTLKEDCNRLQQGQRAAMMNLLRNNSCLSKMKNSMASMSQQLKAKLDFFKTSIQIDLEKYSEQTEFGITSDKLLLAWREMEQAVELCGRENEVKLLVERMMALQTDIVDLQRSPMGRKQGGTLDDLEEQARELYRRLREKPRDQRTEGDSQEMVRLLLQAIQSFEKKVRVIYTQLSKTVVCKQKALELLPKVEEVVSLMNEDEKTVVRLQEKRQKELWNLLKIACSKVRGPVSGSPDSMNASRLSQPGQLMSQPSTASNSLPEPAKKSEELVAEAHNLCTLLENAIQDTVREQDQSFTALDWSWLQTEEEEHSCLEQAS


Experiments:
[1] = target: T1, full-length human IKKβ (Inhibitor of NFκB Kinase β subunit), non-epitope-tagged (human); test: co-IP; HEK293 cells co-transfected; lysed in 1% NP-40 lysis buffer; immunoprecipitated with IKKβ (H-4) antibody, immunoblot with FGFR4 (C-16) antibody
[2] = target: full-length kinase-dead FGFR4 (FGFR4-KD, K504M); test: co-IP; HEK293 cells co-transfected; lysed in 1% NP-40 lysis buffer; immunoprecipitated with FGFR4 (C-16) antibody, immunoblot with IKKβ (H-4) antibody
[3] = target: full-length constitutively active FGFR4-K645E; test: as above

| binding [1] | binding [2] | binding [3] | Molecule |
| --- | --- | --- | --- |
| binds | – | – | full-length constitutively active FGFR4-K645E (receptor) |
| binds | – | – | full-length kinase-dead FGFR4 (FGFR4-KD, K504M) (receptor) |
| – | binds | binds | full-length human IKKβ (Inhibitor of NFκB Kinase β subunit), non-epitope-tagged (enzyme, UniProt O14920-1 1-756) MSWSPSLTTQTCGAWEMKERLGTGGFGNVIRWHNQETGEQIAIKQCRQELSPRNRERWCLEIQIMRRLTHPNVVAARDVPEGMQNLAPNDLPLLAMEYCQGGDLRKYLNQFENCCGLREGAILTLLSDIASALRYLHENRIIHRDLKPENIVLQQGEQRLIHKIIDLGYAKELDQGSLCTSFVGTLQYLAPELLEQQKYTVTVDYWSFGTLAFECITGFRPFLPNWQPVQWHSKVRQKSEVDIVVSEDLNGTVKFSSSLPYPNNLNSVLAERLEKWLQLMLMWHPRQRGTDPTYGPNGCFKALDDILNLKLVHILNMVTGTIHTYPVTEDESLQSLKARIQQDTGIPEEDQELLQEAGLALIPDKPATQCISDGKLNEGHTLDMDLVFLFDNSKITYETQISPRPQPESVSCILQEPKRNLAFFQLRKVWGQVWHSIQTLKEDCNRLQQGQRAAMMNLLRNNSCLSKMKNSMASMSQQLKAKLDFFKTSIQIDLEKYSEQTEFGITSDKLLLAWREMEQAVELCGRENEVKLLVERMMALQTDIVDLQRSPMGRKQGGTLDDLEEQARELYRRLREKPRDQRTEGDSQEMVRLLLQAIQSFEKKVRVIYTQLSKTVVCKQKALELLPKVEEVVSLMNEDEKTVVRLQEKRQKELWNLLKIACSKVRGPVSGSPDSMNASRLSQPGQLMSQPSTASNSLPEPAKKSEELVAEAHNLCTLLENAIQDTVREQDQSFTALDWSWLQTEEEEHSCLEQAS |
